The list shows a part of the results.

Amino acid sequences for entries named in this document (tags omitted). A change or cut given only in a name is not applied to a line headed by its entry.
UniProt Q9NX01: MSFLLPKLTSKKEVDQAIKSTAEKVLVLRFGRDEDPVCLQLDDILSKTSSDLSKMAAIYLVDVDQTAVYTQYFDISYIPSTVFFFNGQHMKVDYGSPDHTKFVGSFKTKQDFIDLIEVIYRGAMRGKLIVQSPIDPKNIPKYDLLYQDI
UniProt P60604: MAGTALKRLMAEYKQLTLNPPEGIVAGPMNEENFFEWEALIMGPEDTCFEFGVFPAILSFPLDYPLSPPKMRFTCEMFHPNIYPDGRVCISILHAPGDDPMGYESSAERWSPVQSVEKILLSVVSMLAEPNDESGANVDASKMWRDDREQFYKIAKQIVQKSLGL
UniProt O15042: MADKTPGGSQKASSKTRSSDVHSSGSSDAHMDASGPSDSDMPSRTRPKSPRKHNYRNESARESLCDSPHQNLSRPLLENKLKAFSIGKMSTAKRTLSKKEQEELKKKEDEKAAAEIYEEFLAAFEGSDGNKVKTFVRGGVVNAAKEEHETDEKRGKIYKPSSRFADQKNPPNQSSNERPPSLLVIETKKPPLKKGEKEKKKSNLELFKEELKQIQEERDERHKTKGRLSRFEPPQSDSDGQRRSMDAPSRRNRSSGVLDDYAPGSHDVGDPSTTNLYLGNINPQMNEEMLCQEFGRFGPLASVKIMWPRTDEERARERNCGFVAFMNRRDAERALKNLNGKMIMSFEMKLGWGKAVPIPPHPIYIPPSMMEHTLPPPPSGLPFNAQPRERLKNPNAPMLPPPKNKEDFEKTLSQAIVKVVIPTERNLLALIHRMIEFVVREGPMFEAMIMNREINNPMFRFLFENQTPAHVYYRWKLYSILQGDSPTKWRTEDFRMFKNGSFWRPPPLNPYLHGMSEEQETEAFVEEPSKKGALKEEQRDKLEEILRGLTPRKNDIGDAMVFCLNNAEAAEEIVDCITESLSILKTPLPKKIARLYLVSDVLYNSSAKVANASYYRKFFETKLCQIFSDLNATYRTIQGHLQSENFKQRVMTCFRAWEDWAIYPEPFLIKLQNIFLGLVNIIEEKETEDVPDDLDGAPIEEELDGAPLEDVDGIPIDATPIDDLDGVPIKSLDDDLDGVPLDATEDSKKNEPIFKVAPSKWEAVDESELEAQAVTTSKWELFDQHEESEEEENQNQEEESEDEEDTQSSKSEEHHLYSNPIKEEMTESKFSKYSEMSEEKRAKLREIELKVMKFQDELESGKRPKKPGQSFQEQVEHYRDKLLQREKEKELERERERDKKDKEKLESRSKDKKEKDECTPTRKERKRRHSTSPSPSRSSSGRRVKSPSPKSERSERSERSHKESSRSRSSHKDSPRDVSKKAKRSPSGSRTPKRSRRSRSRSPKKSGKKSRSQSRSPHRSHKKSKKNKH
UniProt O95071: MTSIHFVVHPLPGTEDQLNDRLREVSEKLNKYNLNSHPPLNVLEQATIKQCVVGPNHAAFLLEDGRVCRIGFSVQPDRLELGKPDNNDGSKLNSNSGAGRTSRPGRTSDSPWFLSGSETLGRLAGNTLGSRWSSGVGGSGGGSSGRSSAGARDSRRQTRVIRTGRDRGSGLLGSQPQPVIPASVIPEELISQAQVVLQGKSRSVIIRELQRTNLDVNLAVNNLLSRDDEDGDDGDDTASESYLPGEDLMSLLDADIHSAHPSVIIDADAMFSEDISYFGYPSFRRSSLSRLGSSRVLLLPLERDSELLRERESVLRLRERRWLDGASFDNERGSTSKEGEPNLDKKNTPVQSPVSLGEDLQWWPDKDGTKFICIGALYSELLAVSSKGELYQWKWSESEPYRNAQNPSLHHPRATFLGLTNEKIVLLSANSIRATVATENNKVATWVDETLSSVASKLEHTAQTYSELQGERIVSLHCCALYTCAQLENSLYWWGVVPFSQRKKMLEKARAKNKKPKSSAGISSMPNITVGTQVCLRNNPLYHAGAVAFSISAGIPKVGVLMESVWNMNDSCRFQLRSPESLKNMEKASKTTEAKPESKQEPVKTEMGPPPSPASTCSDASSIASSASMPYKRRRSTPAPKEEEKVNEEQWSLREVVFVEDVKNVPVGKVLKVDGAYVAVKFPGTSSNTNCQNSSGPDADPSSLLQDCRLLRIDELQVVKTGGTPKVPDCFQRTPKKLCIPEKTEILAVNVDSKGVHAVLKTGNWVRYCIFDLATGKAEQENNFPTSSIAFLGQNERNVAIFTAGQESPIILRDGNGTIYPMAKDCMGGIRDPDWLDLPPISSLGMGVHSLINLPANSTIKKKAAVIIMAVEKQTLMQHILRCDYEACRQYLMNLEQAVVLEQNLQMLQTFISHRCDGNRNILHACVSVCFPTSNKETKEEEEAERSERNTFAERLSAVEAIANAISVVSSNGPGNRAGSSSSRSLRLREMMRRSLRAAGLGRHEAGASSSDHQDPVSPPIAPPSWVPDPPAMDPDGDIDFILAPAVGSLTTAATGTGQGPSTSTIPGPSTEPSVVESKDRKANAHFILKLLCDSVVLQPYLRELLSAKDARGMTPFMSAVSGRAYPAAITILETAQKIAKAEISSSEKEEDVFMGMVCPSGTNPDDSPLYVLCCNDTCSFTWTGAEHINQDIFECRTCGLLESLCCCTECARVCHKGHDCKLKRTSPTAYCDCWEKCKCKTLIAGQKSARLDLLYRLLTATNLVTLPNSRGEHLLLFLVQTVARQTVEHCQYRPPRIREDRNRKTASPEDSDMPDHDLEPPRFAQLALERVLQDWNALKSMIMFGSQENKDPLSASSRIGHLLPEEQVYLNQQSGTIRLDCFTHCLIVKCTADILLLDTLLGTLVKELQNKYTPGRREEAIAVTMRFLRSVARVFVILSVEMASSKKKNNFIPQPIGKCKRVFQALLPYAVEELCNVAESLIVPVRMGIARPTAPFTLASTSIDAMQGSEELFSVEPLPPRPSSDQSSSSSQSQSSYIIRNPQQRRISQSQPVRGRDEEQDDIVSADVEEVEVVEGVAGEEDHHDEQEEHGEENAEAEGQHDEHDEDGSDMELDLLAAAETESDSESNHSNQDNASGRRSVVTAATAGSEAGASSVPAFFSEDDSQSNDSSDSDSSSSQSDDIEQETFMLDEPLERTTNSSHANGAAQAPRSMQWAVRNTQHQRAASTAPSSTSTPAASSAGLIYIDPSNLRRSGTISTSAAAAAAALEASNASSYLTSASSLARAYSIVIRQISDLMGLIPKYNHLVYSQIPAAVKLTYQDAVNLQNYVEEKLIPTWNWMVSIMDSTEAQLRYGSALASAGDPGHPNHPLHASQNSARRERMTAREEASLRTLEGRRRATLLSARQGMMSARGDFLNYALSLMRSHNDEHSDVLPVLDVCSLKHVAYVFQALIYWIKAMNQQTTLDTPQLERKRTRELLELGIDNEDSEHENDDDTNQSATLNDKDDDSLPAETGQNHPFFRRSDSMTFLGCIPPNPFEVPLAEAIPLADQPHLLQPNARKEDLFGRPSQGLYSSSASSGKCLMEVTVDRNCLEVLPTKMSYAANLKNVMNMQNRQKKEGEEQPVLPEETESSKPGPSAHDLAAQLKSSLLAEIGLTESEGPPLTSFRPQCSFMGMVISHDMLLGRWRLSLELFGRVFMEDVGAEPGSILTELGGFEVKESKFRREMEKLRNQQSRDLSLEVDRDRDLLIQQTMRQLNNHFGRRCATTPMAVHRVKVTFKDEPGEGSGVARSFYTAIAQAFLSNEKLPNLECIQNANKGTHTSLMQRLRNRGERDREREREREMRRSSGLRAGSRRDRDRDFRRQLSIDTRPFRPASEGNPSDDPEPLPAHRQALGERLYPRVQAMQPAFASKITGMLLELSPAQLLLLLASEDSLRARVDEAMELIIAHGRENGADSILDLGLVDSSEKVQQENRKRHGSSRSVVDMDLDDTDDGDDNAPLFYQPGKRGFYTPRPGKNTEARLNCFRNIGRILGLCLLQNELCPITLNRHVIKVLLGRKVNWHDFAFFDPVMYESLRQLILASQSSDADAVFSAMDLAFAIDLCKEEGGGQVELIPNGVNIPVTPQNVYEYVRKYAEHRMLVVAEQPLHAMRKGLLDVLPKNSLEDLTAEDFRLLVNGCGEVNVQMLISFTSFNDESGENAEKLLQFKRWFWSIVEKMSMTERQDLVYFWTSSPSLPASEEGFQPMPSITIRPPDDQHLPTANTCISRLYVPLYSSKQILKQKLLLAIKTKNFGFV
UniProt Q04323: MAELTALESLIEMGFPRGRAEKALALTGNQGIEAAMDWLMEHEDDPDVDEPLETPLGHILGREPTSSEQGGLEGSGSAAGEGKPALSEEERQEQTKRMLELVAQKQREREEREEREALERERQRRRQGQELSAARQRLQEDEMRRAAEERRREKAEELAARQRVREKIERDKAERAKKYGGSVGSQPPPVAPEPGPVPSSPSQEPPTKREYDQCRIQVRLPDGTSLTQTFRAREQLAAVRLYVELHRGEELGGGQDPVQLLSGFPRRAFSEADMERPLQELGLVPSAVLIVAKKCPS
UniProt Q9BZL1: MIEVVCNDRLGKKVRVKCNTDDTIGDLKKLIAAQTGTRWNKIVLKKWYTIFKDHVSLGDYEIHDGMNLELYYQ
UniProt Q9NRR5, whole entry, looked up: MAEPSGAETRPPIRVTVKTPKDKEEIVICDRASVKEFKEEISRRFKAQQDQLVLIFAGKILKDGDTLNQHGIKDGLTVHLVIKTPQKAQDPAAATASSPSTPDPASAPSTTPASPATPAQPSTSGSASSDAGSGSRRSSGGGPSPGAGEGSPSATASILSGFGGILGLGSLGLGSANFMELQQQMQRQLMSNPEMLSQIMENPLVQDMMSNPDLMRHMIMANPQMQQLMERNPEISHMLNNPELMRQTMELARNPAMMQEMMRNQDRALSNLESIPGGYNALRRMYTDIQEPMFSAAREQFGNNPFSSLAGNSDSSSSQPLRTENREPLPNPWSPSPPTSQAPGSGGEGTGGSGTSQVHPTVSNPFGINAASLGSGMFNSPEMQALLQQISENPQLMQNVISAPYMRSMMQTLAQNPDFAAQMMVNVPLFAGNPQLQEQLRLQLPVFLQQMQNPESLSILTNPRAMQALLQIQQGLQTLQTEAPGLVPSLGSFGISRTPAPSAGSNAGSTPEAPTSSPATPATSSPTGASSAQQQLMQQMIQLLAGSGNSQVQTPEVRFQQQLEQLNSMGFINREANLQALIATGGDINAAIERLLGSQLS
UniProt Q9UMX0, whole entry, looked up: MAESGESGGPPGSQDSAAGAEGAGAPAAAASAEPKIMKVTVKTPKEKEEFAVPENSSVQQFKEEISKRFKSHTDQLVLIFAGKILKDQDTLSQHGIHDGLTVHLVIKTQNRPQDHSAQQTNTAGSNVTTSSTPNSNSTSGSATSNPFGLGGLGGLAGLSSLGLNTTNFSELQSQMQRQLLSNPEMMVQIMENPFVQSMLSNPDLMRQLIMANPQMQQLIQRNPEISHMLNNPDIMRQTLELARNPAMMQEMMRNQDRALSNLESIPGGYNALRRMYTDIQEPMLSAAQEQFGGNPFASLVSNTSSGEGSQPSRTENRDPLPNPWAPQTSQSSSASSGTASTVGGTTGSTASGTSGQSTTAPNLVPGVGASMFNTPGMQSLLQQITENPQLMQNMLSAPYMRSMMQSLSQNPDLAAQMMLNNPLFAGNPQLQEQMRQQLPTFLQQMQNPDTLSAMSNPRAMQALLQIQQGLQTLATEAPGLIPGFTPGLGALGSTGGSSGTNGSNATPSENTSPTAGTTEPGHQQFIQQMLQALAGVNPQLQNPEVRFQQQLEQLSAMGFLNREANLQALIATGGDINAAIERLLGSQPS
UniProt Q9Y5K5, whole entry, looked up: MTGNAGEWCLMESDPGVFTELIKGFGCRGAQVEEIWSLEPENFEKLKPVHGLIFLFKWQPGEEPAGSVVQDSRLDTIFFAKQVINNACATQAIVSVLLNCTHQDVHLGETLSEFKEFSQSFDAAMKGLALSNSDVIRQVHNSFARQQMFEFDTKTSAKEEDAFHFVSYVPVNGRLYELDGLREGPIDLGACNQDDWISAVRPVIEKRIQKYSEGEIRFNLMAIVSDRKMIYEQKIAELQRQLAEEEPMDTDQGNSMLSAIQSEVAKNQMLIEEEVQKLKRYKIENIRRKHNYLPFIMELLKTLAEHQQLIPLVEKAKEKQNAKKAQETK
UniProt P68543: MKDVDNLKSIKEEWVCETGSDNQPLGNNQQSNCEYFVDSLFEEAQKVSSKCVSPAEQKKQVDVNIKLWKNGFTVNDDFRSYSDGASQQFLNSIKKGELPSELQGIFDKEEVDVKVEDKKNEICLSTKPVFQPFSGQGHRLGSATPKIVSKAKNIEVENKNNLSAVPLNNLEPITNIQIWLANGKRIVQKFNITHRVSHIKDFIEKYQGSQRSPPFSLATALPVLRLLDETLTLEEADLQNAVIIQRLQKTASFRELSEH
UniProt Q6IPR3: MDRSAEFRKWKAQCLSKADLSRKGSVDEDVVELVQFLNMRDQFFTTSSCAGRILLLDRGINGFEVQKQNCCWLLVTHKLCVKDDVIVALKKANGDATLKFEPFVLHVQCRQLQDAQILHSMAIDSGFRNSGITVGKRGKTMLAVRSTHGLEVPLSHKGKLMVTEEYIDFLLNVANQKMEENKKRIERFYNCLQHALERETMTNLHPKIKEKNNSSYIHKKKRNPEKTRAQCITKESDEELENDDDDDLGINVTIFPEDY

In the supplement of paper PMC10849652 one finds log2 fold change data, which are given here for 31 targets.

Compound in one test: O=C1NC(=O)C(c2cnc3ccccn23)=C1c1cn2c3c(cc(F)cc13)CN(C(=O)N1CCCCC1)CC2
The experiment in a line: log2 fold change, soluble protein after heating vs DMSO (PISA); higher = thermal stabilisation; K562 lysate, 10 uM; active = over 0.2 and 3.5 SD of the protein, either way, in both replicates (recomputed). The procedure, abridged:
(§1)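 K562 pellets were dounce-homogenised in PBS pH 7.4 containing 1 mM MgCl2, and the crude extract, at 1 mg/mL protein, was exposed to 10 μM compound for 30 min. Aliquots were heated for 3 min across 48°C-58°C, pooled, brought to 0.5% NP-40 at 4°C and spun at 21,000xg for 90 min, with the supernatant taken as soluble protein. TMTpro 16plex LC-MS/MS with equalised channel sums quantified that protein. Values are log-two fold changes in thermal stability relative to solvent controls, taken from duplicates.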
Turning to UBE2D3 isoform 3 (UniProt P61077), the log2 fold change is inactive: 0.046.

As to TXNL4B (UniProt Q9NX01), the log2 fold change was inactive: -0.025. As for TXLNG (UniProt Q9NUQ3), the log2 fold change was inactive: -0.042. UBE2E1 (UniProt P51965): the log2 fold change was inactive: -0.013. Take UBE2G2 (UniProt P60604): the log2 fold change was inactive: -0.01.

Turning to TXNDC12 (UniProt O95881), the log2 fold change is inactive: -0.001. On the same count and under the same terms, with U2SURP (UniProt O15042) the figure was inactive: -0.007; with UBR5 (UniProt O95071), inactive: -0.011. For UBXN1 (UniProt Q04323), the log2 fold change was inactive: -0.053. In the case of TUBGCP4 (UniProt Q9UGJ1), the log2 fold change was inactive: 0.02. Regarding TXNDC16 (UniProt Q9P2K2), the log2 fold change was inactive: 0.041. On to UBE2O (UniProt Q9C0C9), for which the log2 fold change was inactive: 0.017.

Take TXNIP (UniProt Q9H3M7): the log2 fold change is inactive: -0.051. As to UBFD1 (UniProt O14562), the log2 fold change was inactive: 0.022. For TXNDC9 (UniProt O14530), the log2 fold change is inactive: 0. With UBR1 (UniProt Q8IWV7), the log2 fold change is inactive: 0.008. Take UBL5 (UniProt Q9BZL1): the log2 fold change was inactive: 0.077. On the same count and under the same terms, with TUBB4A (UniProt M0QYM7) the figure was inactive: -0.062; with UBP1 (UniProt Q9NZI7), inactive: -0.01; with UBAP2L isoform 5 (UniProt Q14157), inactive: -0.018. Turning to UBQLN4 (UniProt Q9NRR5), the log2 fold change was inactive: 0.006.

For the target TUT4 (UniProt Q5TAX3), the log2 fold change is inactive: -0.048.

As for UBQLN1 (UniProt Q9UMX0), the log2 fold change is inactive: 0.005.

For the target UBE2J2 (UniProt Q8N2K1), the log2 fold change was inactive: -0.092. UBAC2 (UniProt Q8NBM4): the log2 fold change was inactive: -0.104. Turning to UBE2D1 (UniProt P51668), the log2 fold change is inactive: -0.001. TXN2 (UniProt Q99757): the log2 fold change is inactive: 0.031.

With UCHL5 isoform 3 (UniProt Q9Y5K5), the log2 fold change is inactive: -0.009. For the target UBXN2A (UniProt P68543), the log2 fold change was inactive: -0.002. For TYW3 (UniProt Q6IPR3), the log2 fold change was inactive: -0.042. Regarding TXNDC5 (UniProt Q8NBS9), the log2 fold change was inactive: 0.015.

Compound in the next test: c1cn2cc(-c3ccc4cn[nH]c4c3)nc(Nc3ccc(N4CCOCC4)cc3)c2n1 [entospletinib]
The test is described as above. The procedure, abridged:
as §1
UBE2D3 isoform 3 (UniProt P61077): the log2 fold change was inactive: 0.003. As for TXNL4B (UniProt Q9NX01), the log2 fold change was inactive: 0.009. In the case of TXLNG (UniProt Q9NUQ3), the log2 fold change is inactive: -0.014. Consider UBE2E1 (UniProt P51965), for which the log2 fold change is inactive: 0.037. As to UBE2G2 (UniProt P60604), the log2 fold change is inactive: 0.045. Regarding TXNDC12 (UniProt O95881), the log2 fold change was inactive: -0.009. As to U2SURP (UniProt O15042), the log2 fold change is inactive: -0.007. Regarding UBR5 (UniProt O95071), the log2 fold change is inactive: -0.006.

Take UBXN1 (UniProt Q04323): the log2 fold change is inactive: -0.008. With TUBGCP4 (UniProt Q9UGJ1), the log2 fold change is inactive: 0.038. Turning to UBE2O (UniProt Q9C0C9), the log2 fold change is inactive: -0.002. On the same count and under the same terms, with TXNIP (UniProt Q9H3M7) the figure was inactive: 0.024. Take UBFD1 (UniProt O14562): the log2 fold change is inactive: 0.009. Regarding TXNDC9 (UniProt O14530), the log2 fold change is inactive: 0.013. For the target UBR1 (UniProt Q8IWV7), the log2 fold change is inactive: -0.024. Consider UBL5 (UniProt Q9BZL1), for which the log2 fold change is inactive: -0.049.

Consider TUBB4A (UniProt M0QYM7), for which the log2 fold change is inactive: 0.032. In the case of UBP1 (UniProt Q9NZI7), the log2 fold change is inactive: -0.002. Same read-out and setting: with UBAP2L isoform 5 (UniProt Q14157) the figure was inactive: -0.042; with UBQLN4 (UniProt Q9NRR5), inactive: -0.098. On the same count and under the same terms, with TUT4 (UniProt Q5TAX3) the figure was inactive: -0.029; with UBQLN1 (UniProt Q9UMX0), inactive: -0.043; with UBE2J2 (UniProt Q8N2K1), inactive: 0.065. On to UBAC2 (UniProt Q8NBM4), for which the log2 fold change is inactive: 0.102.

Take UBE2D1 (UniProt P51668): the log2 fold change was inactive: 0.056. As for TXN2 (UniProt Q99757), the log2 fold change was inactive: -0.001. Take UCHL5 isoform 3 (UniProt Q9Y5K5): the log2 fold change was inactive: -0.003. For the target TYW3 (UniProt Q6IPR3), the log2 fold change is inactive: -0.001. Still for that read-out and setting: the value for TXNDC5 (UniProt Q8NBS9) was inactive: 0.
